The other results are listed elsewhere or left out. These are further read-outs of the screen, such as a control signal, another cell line or another target. No call is given for them. Most of these compounds were active or inconclusive in the main read-out, so they are no random draw.
These compounds were tested against Sphingosine 1-phosphate receptor 1 (Homo sapiens) (UniProt P21453) (assay: S1P1 agonists and agonism potentiators, primary screen, cell-based, primary and confirmation screens, CRE-bla reporter (AID 449;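 note: forskolin at 4 µM as EC80 and the EC20 agonist is SEW2871; 100% = SEW2871 at its EC100 plus forskolin at EC80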)). Details: S1P1 CRE-bla cells, forskolin, beta-lactamase FRET, potentiator mode; measured here: confirmation screen, triplicate average; at 9.5 µM; stronger effect = higher value; 100% = saturating reference agonist, 0% = basal; S1P1 agonist co-added at EC20, 2 nM.

The chains behind the UniProt entries cited, without tags or fusion partners.
UniProt P21453, whole entry, looked up: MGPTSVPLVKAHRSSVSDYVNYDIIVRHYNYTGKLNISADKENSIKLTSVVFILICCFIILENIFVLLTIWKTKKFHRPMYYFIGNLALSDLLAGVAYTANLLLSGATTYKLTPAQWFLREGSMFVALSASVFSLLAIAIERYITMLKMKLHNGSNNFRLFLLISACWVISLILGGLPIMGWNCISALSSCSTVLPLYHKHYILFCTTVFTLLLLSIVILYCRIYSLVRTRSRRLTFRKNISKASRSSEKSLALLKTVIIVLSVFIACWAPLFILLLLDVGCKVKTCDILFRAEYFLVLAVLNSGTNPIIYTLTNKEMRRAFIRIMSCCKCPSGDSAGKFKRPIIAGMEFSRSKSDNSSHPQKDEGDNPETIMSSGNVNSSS

SMILES	activation [%]
Nc1nonc1C(=O)NCCNCc1cc(Br)ccc1OCc1ccccc1F	110
COc1ccccc1Oc1ccc2c(c1)C(=O)N(c1ccc(O)cc1)C2=O	109
COc1ccc(-c2cn3c(C)c(C(=O)N4CCCc5ccccc54)sc3n2)cc1	61.1
COc1ccccc1-c1cc(C(=O)Nc2ccccc2SC)no1	97.4
O=C(Nc1ccc(-c2noc(CCc3ccccc3)n2)cc1)c1cccnc1	80.9
COc1ccc(-n2c(C)c(C(C)=O)c3cc(O)ccc32)cc1	70.7
CN1CCN(C(=O)CSc2nc(-c3cccs3)cc(-c3cccs3)c2C#N)CC1	82.4
CCc1ccc(-c2nc(-c3ccncc3)no2)cc1	79.5
CCCS(=O)(=O)c1nnnn1-c1cccc(OC)c1	123
c1ccc2c(c1)oc1c(N3CCN(Cc4ccc5c(c4)OCO5)CC3)ncnc12	107
Cc1cc(/C=N/n2cnnc2)c(C)n1-c1ccc(OCc2ccc(F)cc2)cc1	118
Cc1cc(C(=O)CSc2nnc(-c3cccs3)o2)c(C)n1-c1ccccc1	104
COc1ccc(-c2nc(-c3cccc(C)c3)no2)cc1OC	101
Fc1ccc2[nH]c3c(N4CCN(c5ccccc5)CC4)ncnc3c2c1	121
C=CCN1C(=Nc2cccnc2)SCC1(O)c1ccc(C)cc1 (stereo not given)	88.4
COc1ccc(-n2nc3ccc(NS(C)(=O)=O)cc3n2)cc1Cl	103
CCCc1ccc(Oc2cn[nH]c2-c2ccc(O)cc2O)cc1	56.7
CC(C)(C)C1CCC2(CC1)C(C#N)=C(SCC(=O)Nc1ccccc1)NC(=O)C2C#N (stereo not given)	103
CC(C)c1ccc(OCc2nc(-c3ccccn3)no2)c(Br)c1	79.4
Cc1nn(Cc2ccc(Cl)c(Cl)c2)c(C)c1NC(=O)c1cc(-c2ccco2)on1	106
COc1ccc(C(c2c(O)ccc3ccccc23)N2CCOCC2)c(OC)c1 (stereo not given)	111
Cc1cccc(N2CCN(C(=O)CSCc3c(C)noc3C)CC2)c1C	87.2
COc1cc(CSc2nnnn2-c2ccc(C)cc2)cc(OC)c1OC	107
Oc1c(Cl)cc(Cl)cc1Sc1cc(Cl)cc(Cl)c1O	117

SMILES	activation [%]
CCN(C1CCCCC1)S(=O)(=O)c1ccc(S(=O)(=O)NCc2ccncc2)cc1	58.5
c1ccc(-c2ccc(-c3nc(-c4cccnc4)no3)cc2)cc1	97.5
CS(=O)(=O)n1nc(OC(=O)c2cccc3ccccc23)cc1N	54.1
Cc1cc(C(=O)COC(=O)c2csc3c2CCCC3)c(C)n1C	72
CCOc1ccc(-c2nc(CSCC(=O)N3CCN(c4cccc(OC)c4)CC3)c(C)o2)cc1	77.3
Cc1cc(C(=O)N2CCN(C(c3ccccc3)c3ccccc3)CC2)no1	85.5
CC(C)c1ccc2oc(-c3ccc(N)cc3)nc2c1	61.6
CCCCOC(=O)c1[nH]c2c(c1C)C(=O)CC(c1cc(OC)c(OC)c(OC)c1)C2 (stereo not given)	65.5
CCc1ccc2oc(-c3cc(N)cc(C)c3O)nc2c1	60.8
Cc1nc2sccn2c1-c1csc(NCc2ccccc2)n1	102
Cc1ccc(-c2csc3ncnc(Sc4nnc(CN5CCCCCC5=O)o4)c23)cc1	100
CC(C)(C)OC(=O)N[C@@H](Cc1ccccc1)c1nnc(S(=O)(=O)Cc2cccc(F)c2)o1	63.6
Clc1ccc(CSc2nnc(-c3ccncc3)o2)cc1	78.1
Cc1cc(C)cc(-c2nc(-c3ccncc3)no2)c1	84.5
CC(C)Cn1c(=O)c(C(=O)Nc2ccccc2S(N)(=O)=O)c(O)c2ccccc21	80.4
c1ccc(C(Cc2nc(-c3cccnc3)no2)c2ccccc2)cc1	93.1
CCOc1ccc(C(=O)Nc2ccc(Cl)cn2)cc1Cl	75.6
N#CCCS(=O)(=O)c1nnnn1-c1ccccc1	91.3
CCOC(=O)/C=C/S(=O)(=O)c1ccc(NC(C)=O)cc1	121
Cc1csc(NC(=O)C(Cc2ccccc2)n2cccc2)n1 (stereo not given)	64.2
Cc1ccccc1-c1nnc(SCc2ccccc2F)o1	71.5
C=CCn1c(SCC(=O)c2cccs2)nc2sc(CC)cc2c1=O	105
O=S(=O)(NCc1cn2ccsc2n1)c1ccc(Oc2ccccc2)cc1	98.4
Clc1ccc(OCc2nnc(SCc3nc4ccccc4[nH]3)n2Cc2ccco2)cc1	92.5

SMILES	activation [%]
Cc1sc2ncnc(Sc3nnnn3-c3ccccc3)c2c1C	88.7
CCOc1ccc(-c2nnc(-c3ccco3)o2)cc1OCC	94
COc1cccc(N2CCN(c3ncnc4c3[nH]c3ccc(F)cc34)CC2C)c1 (stereo not given)	123
Cc1nc2sc(-c3ccccc3)cc2c(=O)n1-n1cccc1	66.2
CCc1cc(-c2[nH]ncc2-c2ccc3c(c2)OCO3)c(O)cc1O	74
Cn1c(SCC(=O)Nc2ccc(N3CCOCC3)c(Cl)c2)nnc1-c1ccccc1	82.2
Cc1ccc(-n2c(C)cc(C(=O)COC(=O)c3c(C)noc3C)c2C)cc1	93.8
O=C(CSc1nc2ccccc2o1)Nc1ccc(N2CCOCC2)c(Cl)c1	115
CCOC(=O)Cc1csc(NC(=O)c2ccc(Br)s2)n1	55.4
COc1ccc(CNC(=O)c2cc3c(C)nc4ccccc4c3o2)c(OC)c1	76.8
COc1ccc(-c2nc(-c3ccccc3OC)no2)cc1OC	93.5
COC(=O)c1c(C)n(-c2ccc(OC)cc2)c2ccc(O)cc12	77.2
COc1cccc(-c2nc(-c3ccc(NC(=O)c4cccnc4)cc3)no2)c1	96
O=C(CSc1nnc(-c2c[nH]c3ccccc23)o1)N(Cc1ccccc1)c1ccc(F)cc1	93.5
Cc1nnc(SC(=O)N2c3ccccc3Sc3ccccc32)s1	98.1
Cc1cc(C(=O)CSc2nc3ccccc3c(=O)n2C)c(C)n1Cc1ccc2c(c1)OCO2	115
Cc1cc(C(=O)CSc2nnc(-c3ccccc3)n2-c2ccccc2)c(C)n1-c1ncn[nH]1	65.1
CCCC(=O)Nc1ccc2oc(-c3ccc(OC)c(Br)c3)nc2c1	90.7
COc1ccc(-c2[nH]ncc2-c2ccc3c(c2)OCCO3)c(O)c1	94.1
CCOc1ccc(-c2nc(-c3ccncc3)no2)cc1OCC	105
Cc1cc(C(=O)CSc2nnc(-c3ccncc3)n2-c2ccccc2)c(C)n1C	93.4
Cc1noc(C)c1S(=O)(=O)N(CC(=O)Nc1ccc2c(c1)OCO2)c1ccc(C(C)C)cc1	79.8

— PubChem BioAssay AID449 (The Scripps Research Institute Molecular Screening Center, 2006)
